The results in this text go back to patent US20110105724A1 (published 2011).

The test concerns the target T1, human IL-8 (interleukin-8) (human, UniProt P10145 28-99, limits assumed).
T1 construct: also called recombinant human IL-8
T1 sequence (looked up): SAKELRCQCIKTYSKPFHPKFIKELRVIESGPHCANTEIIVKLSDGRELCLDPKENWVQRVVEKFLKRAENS
The test is described as follows: ELISA.

Positions count from the first letter of the chain named. These are yes or no findings as the source states them, for the method shown. Some binding calls cover weakened binding; strength is not graded here.

B1: humanized antibody A0L0 (antibody, human IgG1, kappa, V domains shown)
VH: QVQLVQSGAEVKKPGASVKVSCKASGYTFTSYWMHWVRQAPGQGLEWMGEIDPSDSNTNYNQKFKGRVTMTRDTSISTAYMELSRLRSDDTAVYYCARELLHAVYWGQGTLVTVSS
VL: DIQMTQSPSSLSASVGDRVTITCTASQDIHKYISWYQQKPGKAPKLLIYDTSTLQPGVPSRFSGSGSGTDFTFTISSLQPEDIATYYCLQYDNLWTFGQGTKVEIKR
notes: Humanized 1C1.5E5, human IgG1/kappa
Turning to B1, the binding entry is given as “binds”.

B2: humanized antibody A1L0 (antibody, human IgG1, kappa, V domains shown)
VH: B1 VH with R67K
VL: B1 VL
notes: Humanized 1C1.5E5, human IgG1/kappa; also called AIL0
As to B2, the binding entry is on record as “binds”.
